Measured values reported in PubChem BioAssay AID2685 (National Center for Advancing Translational Sciences (NCATS), 2010).
This is one part of the list. These are further read-outs of the screen, such as a control signal, another cell line or another target. No call is given for them. Most of these compounds were active or inconclusive in the main read-out, so they are no random draw. Words in brackets tell the shape of the fitted curve; partial curves, single points and poor fits give uncertain potencies.

Test: qHTS Assay for Lipid Storage Modulators in Drosophila S3 Cells;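 on cell number change: cells counted by Cell Tracker Red CMTPX staining in the red channel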
Details: BODIPY lipid droplet fluorescence, 18-24 h; for cell number change: measured here: cell count max response, cells fed with added oleic acid
Outline: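 Drosophila S3 cells loaded with oleic acid (400 uM, as added) and compounds at several concentrations; lipid droplets imaged by 488-nm laser-scanning cytometry, 500–530 nm intensity and object ratio to cell channel. Percent activity normalized to 20 uM Triacsin C.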

[1] = measured here: lipid fluorescence (Fed channel) AC50, cells fed with added oleic acid
[2] = measured here: cell number channel AC50, cells fed with added oleic acid

Which cell number change does the source give for O=C(NC1CCCCC1)/C(=N\O)c1ccccn1 here?
Its cell number change is 5.6%.

What about the AC50 [1] of the same molecule?
The AC50 was 23.1 µM [falling, partial curve].

Which results are given for O=C(CSc1nnc(Cn2nnc3ccccc32)o1)N(Cc1ccc(F)cc1)c1ccccc1?
cell number change: -27.9%; AC50 [1]: 29.1 µM [falling, single point]

Which cell number change does the source give for O=C(NCCN1CCOCC1)C(=O)c1c[nH]c2ccccc12 here?
The cell number change was -9.13%.

Which cell number change does the source give for Cc1c(Br)c([N+](=O)[O-])nn1CC(=O)NCCc1ccc(Cl)cc1 here?
Its cell number change is 17.5%.

What does the source list for CCOc1ccc(C(=O)NCC(=O)NCCOc2ccc(C)cc2)cc1?
cell number change: -10.4%; AC50 [1]: 29.1 µM [falling, single point]

What does the source list for Cc1nnc(NC(=O)CC(CN(C)S(=O)(=O)c2ccccc2)c2ccccc2)s1 (stereo not drawn)?
cell number change: -14.5%; AC50 [1]: 29.1 µM [falling, single point]

What does the source list for O=C(CC12CC3CC(CC(C3)C1)C2)NC(Cc1ccccc1)C(=O)O (stereo not drawn)?
cell number change: 18.8%; AC50 [2]: 0.0517 µM [falling, full curve, poor fit]

For CCCC(=O)Nc1ccc2c(c1)nc(CCN1CCN(c3ccccn3)CC1)n2C, which cell number change is on record?
The cell number change was 14.9%.

With CCOC(=O)[C@H]1[C@H]2COc3cc(OC)ccc3[C@@H]2N2C(=O)c3cc(OC)c(OC)cc3NC(=O)[C@@]12C as the molecule, how does the cell number change read?
The cell number change was 26.7%.

And the AC50 [2]?
The AC50 was 0.82 µM [rising, full curve, poor fit].

What about the AC50 [1] of the same molecule?
Its AC50 is 16.4 µM [rising, partial curve, poor fit].

For C[C@]12CC(O)C3C(CCC4=CC(=O)CC[C@@]43C)C1CCC2c1csc(-c2ccccc2)n1 (stereo partly drawn), which cell number change is on record?
The cell number change was 18.6%.

Which cell number change does the source give for COc1ccc2c(c1)CC/C(=C/c1ccccn1)C2=O here?
The cell number change was -21.3%.

What about the AC50 [1] of the same molecule?
Its AC50 is 0.103 µM [falling, full curve, poor fit].

Which cell number change does the source give for COc1ccc2oc(=O)c(C(=O)C[n+]3cccc(C)c3)cc2c1 here?
The cell number change was -52.9%.

Which cell number change does the source give for CC(C)C(NS(=O)(=O)c1cccc2nsnc12)C(=O)N1CCn2c1nc1ccccc12 (stereo not drawn) here?
The cell number change was -46%.

And the AC50 [2]?
Its AC50 is 29.1 µM [falling, single point].

And the AC50 [1]?
Its AC50 is 29.1 µM [falling, single point].

Which results are given for COC(=O)C1CCN(C(=O)COC(=O)Cc2c[nH]c3ccccc23)CC1?
cell number change: -38.3%; AC50 [2]: 1.84 µM [falling, partial curve, poor fit]; AC50 [1]: 0.146 µM [falling, full curve, poor fit]

With CCOC(=O)c1[nH]c2ccc(F)cc2c1NC(=O)CN1CCc2cc(OC)c(OC)cc2C1 as the molecule, how does the cell number change read?
The cell number change was -1.81%.

What about the AC50 [1] of the same molecule?
Its AC50 is 0.92 µM [rising, partial curve].

Which cell number change does the source give for CC(C)C(NC(=O)c1ccc(Cl)cc1)C(=O)O (stereo not drawn) here?
The cell number change was -98.3%.

What about the AC50 [2] of the same molecule?
Its AC50 is 29.1 µM [falling, single point].

What about the AC50 [1] of the same molecule?
The AC50 was 18.4 µM [falling, partial curve].

With O=C(Nc1ccc2ccccc2c1)[C@@H]1C[C@H]1[C@@H](NP(=O)(c1ccccc1)c1ccccc1)c1ccccc1 as the molecule, how does the cell number change read?
The cell number change was -0.764%.

And the AC50 [1]?
The AC50 was 2.31 µM [rising, partial curve].

For O=C(CSc1ncnc2[nH]ncc12)Nc1nc(-c2ccc(F)c(F)c2)cs1, which cell number change is on record?
The cell number change was 36.9%.

And the AC50 [2]?
Its AC50 is 11.6 µM [rising, single point].

With CCc1c(C(=O)NC2CCCc3ccccc32)[nH]c(C)c1C(C)=O (stereo not drawn) as the molecule, how does the cell number change read?
The cell number change was -10.7%.

What does the source list for Cc1ccc(-c2nc3cnccn3c2Nc2ccc3c(c2)OCO3)o1?
AC50 [2]: 1.64 µM [rising, partial curve]; AC50 [1]: 1.64 µM [rising, partial curve]

For Cc1ccccc1S(=O)(=O)c1c(C)cc(C)n(C(C)C)c1=O, which cell number change is on record?
The cell number change was -11.4%.

What about the AC50 [1] of the same molecule?
Its AC50 is 29.1 µM [falling, single point].

Which cell number change does the source give for Cc1cc(C(C)(C)C)cc(C)c1COC(=O)C1CCC(=O)N1 (stereo not drawn) here?
The cell number change was -13.2%.

With Cc1cccc(/C=N/NC(=O)NC23CC4CC(CC(C4)C2)C3)n1 as the molecule, how does the cell number change read?
Its cell number change is -10.4%.

And the AC50 [1]?
The AC50 was 0.82 µM [rising, partial curve].

With Cc1cc(C(=O)COC(=O)Cn2cnc3c2c(=O)n(C)c(=O)n3C)c(C)n1C as the molecule, how does the cell number change read?
Its cell number change is 6.43%.

And the AC50 [2]?
The AC50 was 0.13 µM [falling, full curve, poor fit].

And the AC50 [1]?
The AC50 was 0.651 µM [falling, full curve, poor fit].

Which AC50 [2] does the source give for Cc1ccc(C(=O)N2CCN(S(=O)(=O)c3ccccc3)CC2)cc1 here?
The AC50 was 4.11 µM [rising, single point].

And the AC50 [1]?
Its AC50 is 0.92 µM [rising, full curve, poor fit].

Which results are given for CCOc1ncccc1C(=O)OCC(=O)NCCc1ccc(S(N)(=O)=O)cc1?
cell number change: -13.6%; AC50 [1]: 29.1 µM [rising, single point]

Which cell number change does the source give for COCCn1c(N2CCCC2)nc2c1c(=O)[nH]c(=O)n2C here?
The cell number change was 32.8%.

For Cc1ccc(OCC(=O)N(Cc2ccccc2)C(C)C)c([N+](=O)[O-])n1, which cell number change is on record?
The cell number change was 89.9%.

And the AC50 [2]?
The AC50 was 0.92 µM [rising, full curve].

What does the source list for Cc1cc(C(=O)Nc2ccncc2)c2ccccc2n1?
cell number change: 4.86%; AC50 [1]: 29.1 µM [falling, single point]

Which cell number change does the source give for Cc1ccc(C(=O)Nc2cc(S(=O)(=O)N3CCOCC3)ccc2N2CCCC2)cc1 here?
Its cell number change is -8.3%.

What about the AC50 [1] of the same molecule?
The AC50 was 6.51 µM [falling, single point].

With Cc1nc2cc(NC(=O)c3ccc(N4C(=O)CCC4=O)cc3)ccc2s1 as the molecule, how does the cell number change read?
Its cell number change is -10.7%.

What about the AC50 [2] of the same molecule?
The AC50 was 0.00461 µM [falling, full curve, poor fit].

What about the AC50 [1] of the same molecule?
Its AC50 is 0.82 µM [falling, single point].

Which results are given for Cc1nc2cc(C(F)(F)F)ccc2n1CCNc1nc(-c2ccc([N+](=O)[O-])c(Cl)c2)cs1?
cell number change: -10.2%; AC50 [1]: 29.1 µM [falling, single point]

For COc1ccc(-c2nc(-c3ccc(O)cc3O)cs2)cc1OC, which cell number change is on record?
The cell number change was -31.4%.

And the AC50 [2]?
Its AC50 is 29.1 µM [falling, single point].

What about the AC50 [1] of the same molecule?
Its AC50 is 18.4 µM [falling, single point].

Which cell number change does the source give for CN(C)c1cccc(C(=O)NNC(=O)CSc2ccccc2)c1 here?
The cell number change was 13%.

And the AC50 [1]?
Its AC50 is 3.26 µM [rising, full curve, poor fit].

With Cc1c(Cl)cnc(NC(=O)COC(=O)CCS(=O)(=O)c2ccccc2)c1Cl as the molecule, how does the cell number change read?
Its cell number change is -23%.

What about the AC50 [2] of the same molecule?
The AC50 was 2.91 µM [rising, single point].

Which cell number change does the source give for Nc1ccc(NC(=O)c2ccccc2)c2c1C(=O)c1ccccc1C2=O here?
Its cell number change is -15.9%.

For O=C(Cn1c(=O)oc2cc(S(=O)(=O)N3CCCCC3)ccc21)N1CCc2ccccc21, which cell number change is on record?
The cell number change was -86.9%.

And the AC50 [2]?
The AC50 was 23.1 µM [falling, partial curve].

What about the AC50 [1] of the same molecule?
The AC50 was 1.46 µM [falling, full curve].
